Source: article PMC11860778
Results are given in words; binding and its absence hold for the method and conditions named. In cells and extracts the contact can be indirect. Some binding calls cover weakened binding; strength is not graded here. Tags and fused reporters may be left off the sequences shown.

The chains behind the UniProt entries cited, without tags or fusion partners. Residues count along the entry.
UniProt Q10589, residues 1-161: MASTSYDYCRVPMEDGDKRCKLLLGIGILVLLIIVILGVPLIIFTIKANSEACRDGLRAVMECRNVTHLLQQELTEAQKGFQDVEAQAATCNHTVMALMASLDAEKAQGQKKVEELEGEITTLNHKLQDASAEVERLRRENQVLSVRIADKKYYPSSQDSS

Biological target: T1, OTUD1 (overexpressed, untagged plasmid pCMV3-OTUD1) (human) (UniProt Q5VV17)
T1 sequence: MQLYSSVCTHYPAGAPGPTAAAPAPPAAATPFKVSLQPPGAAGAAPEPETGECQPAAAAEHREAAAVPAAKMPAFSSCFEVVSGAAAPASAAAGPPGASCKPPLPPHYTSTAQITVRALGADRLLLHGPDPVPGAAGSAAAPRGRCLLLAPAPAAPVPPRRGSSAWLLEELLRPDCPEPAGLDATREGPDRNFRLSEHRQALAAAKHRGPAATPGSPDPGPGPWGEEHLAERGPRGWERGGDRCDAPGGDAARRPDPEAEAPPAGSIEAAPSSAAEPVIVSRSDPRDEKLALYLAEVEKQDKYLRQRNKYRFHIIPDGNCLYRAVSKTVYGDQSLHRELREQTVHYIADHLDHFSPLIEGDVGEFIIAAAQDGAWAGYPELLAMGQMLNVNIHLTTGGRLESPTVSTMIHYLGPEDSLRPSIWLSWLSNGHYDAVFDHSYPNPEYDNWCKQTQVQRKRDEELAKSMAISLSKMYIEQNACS
Experiment: co-IP; HEK293T co-transfected with OTUD1 and HA-BST-2; OTUD1 immunoprecipitated with OTUD1 antibody for 6 h, protein A/G beads overnight; Western blot for HA-BST-2

HA-BST-2 (bone marrow stromal cell antigen 2) (from UniProt Q10589 1-161)
binding: binds
